Measurements reported in PubChem BioAssay AID743121 (NCATS, 2013)
Shown is a random part of about 26,000 reagents. In the full data, 167 (0.63%) got an active call. 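Calls are per gene from RSA p-values that are not deposited; an individual active-marked siRNA can sensitise only weakly.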 Unmarked entries are inactive. The numbers tell different reagents against one gene apart. Further read-outs or replicates are left out here.

Screen: 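Genes whose silencing strengthens cell killing by camptothecin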 (primary screen)
Cells: MDA-MB-231 cells, a human breast cancer line
Reagents: single siRNA against human genes, 20 nM siRNA (0.8 pmol per well)
Timing: 120 h (drug added 48 h after transfection, read 72 h later)
Challenge: camptothecin 20 nM (about EC30) for 72 h; vehicle 0.1% DMSO in parallel plates
Detection: 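CellTiter-Glo ATP signal, scaled to control siRNA as percent viability; sensitisation given as log2 of untreated divided by camptothecin-treated viability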
Direction: log2 vehicle/camptothecin viability: higher = stronger sensitisation to camptothecin
Hit rule: 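Active genes have an RSA gene-level p-value below 0.001, computed from the ratios of their separate siRNAs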

| gene knocked down | reagent | log2 vehicle/camptothecin viability |
| --- | --- | --- |
| PSMA6 | 1 | -0.106 |
| PSMA6 | 2 | -0.377 |
| PSMA6 | 3 | 0.244 |
| PSMA6 | 4 | -0.423 |
| DLAT | 1 | -0.126 |
| DLAT | 2 | 0.06 |
| DLAT | 3 | -0.107 |
| DLAT | 4 | -0.196 |
| CLEC7A | 1 | -0.54 |
| CLEC7A | 2 | 0.0991 |
| CLEC7A | 3 | -0.00472 |
| CLEC7A | 4 | -0.501 |
| GMIP | 1 | -0.577 |
| GMIP | 2 | 0.0122 |
| GMIP | 3 | -0.241 |
| GNG13 | 1 | -0.219 |
| GNG13 | 2 | 0.296 |
| GNG13 | 3 | -0.0323 |
| GNG13 | 4 | -0.00794 |
| BCAP31 | 1 | -0.213 |
| BCAP31 | 2 | -0.485 |
| BCAP31 | 3 | -0.291 |
| BCAP31 | 4 | -0.0392 |
| ADGRD1 | 1 | -0.032 |
| ADGRD1 | 2 | -0.306 |
| ADGRD1 | 3 | -0.282 |
| ADGRD1 | 4 | -0.0569 |
| MTR | 1 | -0.175 |
| MTR | 2 | -0.582 |
| MTR | 3 | 0.117 |
| MTR | 4 | -0.13 |

In a second layout: results already given.
gene knocked down	reagent	log2 vehicle/camptothecin viability
CLEC7A	1	-0.54
CLEC7A	2	0.0991
CLEC7A	3	-0.00472
CLEC7A	4	-0.501
